The source of these data is publication doi:10.1101/481754.

Sequences of proteins named here, by UniProt entry; tags and fusion partners are left off.
UniProt O43399: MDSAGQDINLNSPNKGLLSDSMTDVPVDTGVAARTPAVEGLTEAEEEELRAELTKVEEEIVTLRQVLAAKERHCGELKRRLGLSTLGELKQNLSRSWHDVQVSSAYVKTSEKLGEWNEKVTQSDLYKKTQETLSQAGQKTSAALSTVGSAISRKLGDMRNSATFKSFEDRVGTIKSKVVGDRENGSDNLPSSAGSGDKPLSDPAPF
UniProt P51148: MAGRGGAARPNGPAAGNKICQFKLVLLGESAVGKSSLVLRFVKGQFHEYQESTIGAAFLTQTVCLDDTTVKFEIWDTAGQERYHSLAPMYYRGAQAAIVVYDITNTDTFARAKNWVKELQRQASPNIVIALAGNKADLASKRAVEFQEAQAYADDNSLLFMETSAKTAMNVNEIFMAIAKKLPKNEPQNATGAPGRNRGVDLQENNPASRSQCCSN
UniProt P61019: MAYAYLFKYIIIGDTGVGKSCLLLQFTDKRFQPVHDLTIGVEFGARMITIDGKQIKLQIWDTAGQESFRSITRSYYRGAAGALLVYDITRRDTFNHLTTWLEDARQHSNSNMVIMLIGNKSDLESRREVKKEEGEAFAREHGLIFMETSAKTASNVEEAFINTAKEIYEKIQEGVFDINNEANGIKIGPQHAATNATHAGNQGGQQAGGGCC

No constants are given. Whether binding was seen depends on the method and setting. In cells and extracts the contact can be indirect. A yes stands for co-enrichment or nearness to the bait. Other partners may have been found.

The experiment concerns the target GFP-TPD54 (Tumor Protein D54) (human) (UniProt O43399). Put plainly: affinity purification with mass spectrometry.

Turning to Rab5c (from UniProt P51148 1-216), the binding entry is “binds”.
Turning to Rab2a (from UniProt P61019 1-212), the binding entry is listed as “binds”.

B1: TPD53 (protein, UniProt Q16890 1-204)
chain: MEAQAQGLLETEPLQGTDEDAVASADFSSMLSEEEKEELKAELVQLEDEITTLRQVLSAKERHLVEIKQKLGMNLMNELKQNFSKSWHDMQTTTAYKKTHETLSHAGQKATAAFSNVGTAISKKFGDMSYSIRHSISMPAMRNSPTFKSFEERVETTVTSLKTKVGGTNPNGGSFEEVLSSTAHASAQSLAGGSRRTKEEELQC
Consider B1, for which the binding entry is recorded as “binds”.

B2: TPD52 (Tumor Protein D52) (protein, UniProt P55327 1-224)
chain: MDCREMDLYEDYQSPFDFDAGVNKSYLYLSPSGNSSPPGSPTLQKFGLLRTDPVPEEGEDVAATISATETLSEEEQEELRRELAKVEEEIQTLSQVLAAKEKHLAEIKRKLGINSLQELKQNIAKGWQDVTATSAYKKTSETLSQAGQKASAAFSSVGSVITKKLEDVKNSPTFKSFEEKVENLKSKVGGTKPAGGDFGEVLNSAANASATTTEPLPEKTQESL
With B2, the binding result was “binds”.
